Reference: patent US20250355001A1, “METHOD FOR DETECTING A TAU PROTEIN FRAGMENT IN A SAMPLE” (GTINVENT LIMITED, priority 2022, published 2025)

Experiments:
[1] = system: tau fragments in human plasma; test: Simoa 3-step assays on human plasma (AD/MCI vs healthy control)
[2] = system: hT40, dGA and dGAE in spiked samples; assay type: binding, human; details: S1D12 mAb capture

B1: CA4: anti-tau core clone, Table 10; SEQ ID NO: 368 (protein)
scFv: QVQLQESGPSLVKPSQTLSLTCTVSGFSLTSYSVYWVRQAPGQALEWISIMYASGRVDYNPALKSRLSITRDTSKSQFSLSLSSVTTEDTAVYYCTRGIENWGPGLLVTVSSEGKSSGASGESKVDDDIQVTQSPSSLSASLTERVSITCRTSQSVNNYLSWYQQKPGQAPKLLIYYATRLYTDVPSRFSGSGSGTDYTLTITSLEADDTATYYCLQYDSTPLAFGGGTNVEIK
modifications: CA4 amino acid sequence
functional lower limit of quantification ([1]; CA4 capture, BT2 detector): around 1 ng/ml

B2: S1D12 mAb: S1D12 reformatted; heavy chain SEQ ID NO: 445, light chain 446 (antibody)
heavy: QVQLQESGPSLVKPSQTLSLTCTVSGFSLNNNAVGWVRQAPGKVPESLVGCSSDGTCYYNSALKSRLDITRDTSKNQISLSLSSVTTDDAAVYYCTRGHYSIYGYDYLGTIDYWGPGLLVTVSSAKTTAPSVYPLAPVCGDTTGSSVTLGCLVKGYFPEPVTLTWNSGSLSSGVHTFPAVLQSDLYTLSSSVTVTSSTWPSQSITCNVAHPASSTKVDKKIEPRGPTIKPCPPCKCPAPNLLGGPSVFIFPPKIKDVLMISLSPIVTCVVVDVSEDDPDVQISWFVNNVEVHTAQTQTHREDYNSTLRVVSALPIQHQDWMSGKEFKCKVNNKDLPAPIERTISKPKGSVRAPQVYVLPPPEEEMTKKQVTLTCMVTDFMPEDIYVEWTNNGKTELNYKNTEPVLDSDGSYFMYSKLRVEKKNWVERNSYSCSVVHEGLHNHHTTKSFSRTPGK
light: QAVLTQPSSVSGSLGQRVSITCSGSSSNVGGGNSVGWYQHLPGSGLKTIIYDTNSRPSGVPDRFSGSRSGNTATLTINSLQAEDEGDYYCVTGDSTTHDDLVGSGTRLTVLGGQPKSSPSVTLFPPSSEELETNKATLVCTITDFYPGVVTVDWKVDGTPVTQGMETTQPSKQSNNKYMASSYLTLTARAWERHSSYSCQVTHEGHTVEKSLSRADCS
modifications: S1D12 mAB Heavy Chain; S1D12 mAB Light Chain
binding signal of spiked samples A-D, ELISA #1 ([2]; CB7 scAb detection): Sample C did not generate a binding signal | binding signal of spiked samples A-D, ELISA #2 ([2]; E2E8 scAb detection): Samples A, C and D did not generate any binding signals

B3: S1D12: sheep-derived anti-tau core clone; scFv SEQ ID NO: 32, VH 443, VL 444 (protein)
scFv: QVQLQESGPSLVKPSQTLSLTCTVSGFSLNNNAVGWVRQAPGKVPESLVGCSSDGTCYYNSALKSRLDITRDTSKNQISLSLSSVTTDDAAVYYCTRGHYSIYGYDYLGTIDYWGPGLLVTVSSEGKSSGASGESKVDDQAVLTQPSSVSGSLGQRVSITCSGSSSNVGGGNSVGWYQHLPGSGLKTIIYDTNSRPSGVPDRFSGSRSGNTATLTINSLQAEDEGDYYCVTGDSTTHDDLVGSGTRLTVLG
modifications: S1D12 amino acid sequence
tau measured relative to NT1 assay ([1]; human plasma): 1,000 fold
